Results are given in words; binding and its absence hold for the method and conditions named. In cells and extracts the contact can be indirect. Some results given as binding are weak or reduced against the parent protein; the word gives no strength.
Biological target: Epidermal growth factor receptor (EGFR) (human (endogenous in SKOV3 and A2780)) (UniProt P00533)
Test: co-IP; reciprocal co-IP of endogenous PKG I and EGFR from SKOV3 and A2780 lysates; primary antibody overnight at 4 °C, magnetic beads 2 h, washed four times with PBS, Western blot

B1: type I cGMP-dependent protein kinase (PKG I) (enzyme, UniProt Q13976 1-671)
chain: MSELEEDFAKILMLKEERIKELEKRLSEKEEEIQELKRKLHKCQSVLPVPSTHIGPRTTRAQGISAEPQTYRSFHDLRQAFRKFTKSERSKDLIKEAILDNDFMKNLELSQIQEIVDCMYPVEYGKDSCIIKEGDVGSLVYVMEDGKVEVTKEGVKLCTMGPGKVFGELAILYNCTRTATVKTLVNVKLWAIDRQCFQTIMMRTGLIKHTEYMEFLKSVPTFQSLPEEILSKLADVLEETHYENGEYIIRQGARGDTFFIISKGTVNVTREDSPSEDPVFLRTLGKGDWFGEKALQGEDVRTANVIAAEAVTCLVIDRDSFKHLIGGLDDVSNKAYEDAEAKAKYEAEAAFFANLKLSDFNIIDTLGVGGFGRVELVQLKSEESKTFAMKILKKRHIVDTRQQEHIRSEKQIMQGAHSDFIVRLYRTFKDSKYLYMLMEACLGGELWTILRDRGSFEDSTTRFYTACVVEAFAYLHSKGIIYRDLKPENLILDHRGYAKLVDFGFAKKIGFGKKTWTFCGTPEYVAPEIILNKGHDISADYWSLGILMYELLTGSPPFSGPDPMKTYNIILRGIDMIEFPKKIAKNAANLIKKLCRDNPSERLGNLKNGVKDIQKHKWFEGFNWEGLRKGTLTPPIIPSVASPTDTSNFDSFPEDNDEPPPDDNSGWDIDF
binding: binds

Reference: paper PMC9849337
